Some of the results follow. The main result of the screen is listed elsewhere. These columns were measured beside it and carry no call. Compounds called inactive in the main read-out are mostly missing here. Words in brackets tell the shape of the fitted curve; partial curves, single points and poor fits give uncertain potencies.
Test: qHTS Assay to Find Inhibitors of Chronic Active B-Cell Receptor Signaling
Conditions: ABC-DLBCL IkBa-CBG/CBR reporter, luminescence ratio (green luciferase fused to IkBa over red control in TMD8 lymphoma cells), 4 h
Outline: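 Compounds up to 46 uM were incubated four hours with TMD8 cells whose green CBG68 luciferase is fused to IkappaBalpha; red CBR luminescence normalised the signal, and concentration-effect curves were fitted to fusion, red and ratio data.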

[1] = measured here: CBR red luminescence, cell number
[2] = measured here: IkBa-CBG green luminescence

Compound	AC50 [1]	AC50 [2]
CCOc1cccc(-c2nnc3sc(-c4cc(OC)c(OC)c(OC)c4)nn23)c1	2.82 µM [rising, partial curve, poor fit]	
O=C(CC(=O)c1ccccc1O)c1ccc(F)cc1	1.3 µM [rising, full curve, poor fit]	
O=C(CSc1ncccc1-c1nc2ccccc2[nH]1)NCc1ccco1	3.98 µM [falling, full curve]	
Cc1ccc(-n2nc(C)c3cc(C(=O)O)sc32)cc1	20.6 µM [falling, single point]	
O=C(O)C1C2C=CC(C2)C1C(=O)Nc1ccccc1Br (centres undefined)	3.98 µM [rising, single point]	
O=C(/C=C/c1ccccc1)N1CCN(c2ccccn2)CC1	22.4 µM [falling, single point]	
C=CCNc1nc(Nc2ccccc2F)nc(OCC)n1	10 µM [falling, partial curve]	
O=C(O)c1ccc(S(=O)(=O)c2ccc3c(c2)C(=O)N(NC(=O)c2ccc(O)cc2)C3=O)cc1	0.631 µM [falling, full curve]	
Cc1cc(C(=O)NCc2ccccc2)c(=O)[nH]c1C	35.5 µM [falling, single point]	
CCN(C(=O)COC(=O)c1ccccc1Nc1cccc(C)c1C)C1CCS(=O)(=O)C1 (centres undefined)	0.355 µM [falling, full curve, poor fit]	
O=C(Nc1ccc2c(c1)OCO2)c1ccc(Cl)cc1Cl	3.98 µM [rising, single point]	
Cc1ccc(C(=O)OC(C)C(=O)NC2CCCCC2C)cc1S(=O)(=O)N1CCOCC1 (centres undefined)	35.5 µM [rising, single point]	
Cc1ccc(Oc2c(C(N)=O)cc([N+](=O)[O-])cc2[N+](=O)[O-])cc1	18.4 µM [falling, single point]	32.6 µM [rising, partial curve, poor fit]
COc1ccc(NC(=O)c2cccc(NC(=O)C3C4CC5OC(=O)C3C5C4)c2)c(OC)c1 (centres undefined)	7.31 µM [falling, partial curve, poor fit]	
COc1ccccc1NCc1cc(=O)oc2c(C)c(O)ccc12	20 µM [falling, single point]	
O=C(/C=C/c1ccccc1)Nc1ccc(Br)cn1	2.82 µM [falling, full curve]	
O=C1/C(=C\Nc2ccc(OC(F)(F)F)cc2)CCN1c1ncccn1	0.517 µM [rising, full curve, poor fit]	
COc1cccc2cc(C(=O)NCC3CCCO3)c(=O)oc12 (centres undefined)	6.51 µM [falling, partial curve]	
CN(c1ccc(C(=O)Nc2ccc3c(c2)OCCO3)cc1)S(C)(=O)=O	0.259 µM [falling, full curve, poor fit]	
CCN(CC)S(=O)(=O)c1cc(NC(=O)c2ccc3c(c2)NC(=O)C(C)S3)ccc1C (centres undefined)	32.6 µM [falling, single point]	
N#CC(c1ccc(Cl)nn1)c1ccc(Cl)cc1Cl (centres undefined)	1.64 µM [falling, full curve]	

Compound	AC50 [1]	AC50 [2]
Cn1c(C(=O)NCc2cccnc2)cc2sccc21	6.51 µM [rising, single point]	
O=C(NC1CCCC1)C(c1ccncc1)N(Cc1ccco1)C(=O)c1ccc(-c2ccccc2)[nH]1 (centres undefined)	35.5 µM [falling, single point]	11.2 µM [rising, partial curve, poor fit]
COc1ccc(N=Nc2ccc(O)c3ncccc23)cc1	2.82 µM [rising, full curve, poor fit]	
Nc1nonc1-n1nnc(C(=O)N/N=C/c2ccc(Cl)cc2)c1-c1ccc2c(c1)OCO2	2.82 µM [rising, partial curve, poor fit]	
CCOc1ccc(C(=O)/C=C/Nc2ccc(S(=O)(=O)Nc3cc(C)nc(C)n3)cc2)cc1	35.5 µM [rising, single point]	
CCCc1c(C(=O)N/N=C/c2cccs2)nnn1-c1nonc1N	0.0891 µM [rising, full curve, poor fit]	
COc1ccc(CNCCC(c2ccc(OC(C)C)cc2)c2ccccc2OC)cc1OC (centres undefined)	35.5 µM [falling, single point]	
Cc1cc(C(=O)NCc2csc(-c3ccccc3)n2)no1	2.51 µM [rising, full curve, poor fit]	
C=CC[n+]1ccc(/C=C2\C=Cc3cc(C)ccc3N2CC)c2ccccc21		22.4 µM [rising, partial curve, poor fit]
Cc1c(N2C(=O)/C(=C/C3CC=CCC3)SC2=S)c(=O)n(-c2ccccc2)n1C (centres undefined)	10 µM [falling, partial curve]	
COc1ccc(CNC2CCSc3ccccc32)cc1OC (centres undefined)	5.62 µM [rising, single point]	
O=C(O)c1ccc(OCCCCCCOC2CCCCO2)cc1 (centres undefined)	10 µM [rising, single point]	
c1ccc(-c2cccc(-c3ccccc3)n2)cc1	35.5 µM [rising, partial curve, poor fit]	
COCCn1c(SCC(=O)c2c(N)n(C3CC3)c(=O)[nH]c2=O)nnc1-c1cccc(C)c1	29.1 µM [rising, single point]	
C=CCSc1nnc2c(n1)OC=Nc1ccc(Br)cc1-2	32.6 µM [falling, single point]	
COc1ccccc1NC(=O)c1sc2nc(N3CCOCC3)c3c(c2c1N)CCCC3	5.62 µM [rising, single point]	
CC(=O)N1CCC2(CC1)C/C(=N\NC(=S)Nc1ccccc1F)c1cc(O)ccc1O2	31.6 µM [falling, single point]	
O=C1C(=O)c2ccc(-c3ccccc3)cc2-c2ccccc21	5.8 µM [falling, full curve, poor fit]	
COc1ccc(Nc2nc(C)nc3c2nnn3Cc2ccccc2Cl)c(OC)c1	15.8 µM [rising, single point]	
O=C1NC(c2ccccc2)CCO1 (centres undefined)	1.58 µM [rising, full curve, poor fit]	
CCc1nnc(NC(=O)c2cc(Cl)ccn2)s1	35.5 µM [falling, single point]	25.1 µM [falling, single point]

4 entries from above, set out differently:
CC(=O)N1CCC2(CC1)C/C(=N\NC(=S)Nc1ccccc1F)c1cc(O)ccc1O2
  AC50 [1]: 31.6 µM [falling, single point]
O=C1C(=O)c2ccc(-c3ccccc3)cc2-c2ccccc21
  AC50 [1]: 5.8 µM [falling, full curve, poor fit]
COc1ccc(Nc2nc(C)nc3c2nnn3Cc2ccccc2Cl)c(OC)c1
  AC50 [1]: 15.8 µM [rising, single point]
O=C1NC(c2ccccc2)CCO1 (centres undefined)
  AC50 [1]: 1.58 µM [rising, full curve, poor fit]

Arranged by length of the SMILES (high to low): part of the list above.
Compound	AC50 [1]	AC50 [2]
COc1ccc(Nc2nc(C)nc3c2nnn3Cc2ccccc2Cl)c(OC)c1	15.8 µM [rising, single point]	
CCCc1c(C(=O)N/N=C/c2cccs2)nnn1-c1nonc1N	0.0891 µM [rising, full curve, poor fit]	
O=C1C(=O)c2ccc(-c3ccccc3)cc2-c2ccccc21	5.8 µM [falling, full curve, poor fit]	

(list continues)

Compound	AC50 [1]	AC50 [2]
CC(C)(C)[C@H]1C=C(C(=O)NCc2nc3ccccc3[nH]2)O[C@@H](OCc2ccc(CO)cc2)C1	35.5 µM [falling, single point]	
CCNC(=O)COC(=O)c1cc(C)n(-c2ccccc2)c1C	1.12 µM [rising, full curve, poor fit]	
COc1ccc(C(=O)Nc2ccccc2C(=O)Nc2ccccc2C(=O)O)cc1	12.6 µM [falling, single point]	
COc1ccccc1NC(=O)c1ccccc1NC(=O)c1ccccn1	2.59 µM [falling, full curve, poor fit]	
O=C(NCc1ccc2c(c1)OCO2)c1ccc(CSCc2ccc(Cl)cc2)o1	29.1 µM [falling, single point]	
CC(Oc1ccc(Br)cc1)C(=O)Nc1cc(Cl)ccc1N1CCN(C)CC1 (centres undefined)	23.1 µM [falling, single point]	
CCCn1nc(NC(=O)c2cccs2)c2cc3cc(C)ccc3nc21	7.94 µM [falling, partial curve]	
O=c1[nH]c(/C=C/c2ccccc2Cl)c([N+](=O)[O-])c(=O)[nH]1	22.4 µM [falling, single point]	
Cc1ccc(-c2cc(C(F)F)n3ncc(C(=O)N4CCN(c5ccccn5)CC4)c3n2)cc1	0.058 µM [rising, full curve, poor fit]	
Cc1nn(C)cc1C(=O)NNC(=S)Nc1ccc(Cl)cc1	20 µM [falling, partial curve, poor fit]	
CC(NC(=O)c1ccc(F)cc1Cl)C1CC2CCC1C2 (centres undefined)	35.5 µM [rising, single point]	
CS(=O)(=O)c1nc(-c2ccccc2)cc(C(F)(F)F)n1	2.59 µM [falling, full curve]	2.91 µM [rising, full curve]
Cc1ccc(C(=O)NCc2ccco2)cc1S(=O)(=O)Nc1cccc(Cl)c1	0.731 µM [falling, partial curve, poor fit]	0.231 µM [rising, full curve, poor fit]
O=C(CCSCc1ccccc1F)NCc1ccc(F)cc1	10 µM [rising, partial curve]	
COc1ccc(C2CC(O)(C(C)(C)O)NO2)cc1 (centres undefined)	10 µM [falling, single point]	
Oc1ccccc1-c1nnc(-c2ccc(C(F)(F)F)cc2)o1	5.62 µM [rising, partial curve, poor fit]	
CCOC(=O)C1=C(C)NC(C)=C(C(=O)OCC)C1c1cc(N)ccc1OC(F)F	29.1 µM [falling, single point]	
OC(CC1CC12c1ccccc1-c1ncccc12)(c1ccccc1)c1ccccc1 (centres undefined)	10.3 µM [falling, partial curve]	16.4 µM [rising, partial curve, poor fit]
Cc1cc(C(=O)CSc2nnc(-c3cccnc3)n2-c2ccccc2F)c(C)n1CC1CCCO1 (centres undefined)	0.651 µM [rising, full curve, poor fit]	
COc1ccc(CCN(C)C(=O)CSc2ncnc3sccc23)cc1OC	3.16 µM [rising, partial curve, poor fit]	
Cc1ccc(S(=O)(=O)CCC(=O)OC(C)C(=O)N2CCc3ccccc32)cc1 (centres undefined)	6.51 µM [falling, partial curve, poor fit]	

From PubChem BioAssay AID493014 (National Center for Advancing Translational Sciences (NCATS), 2011)
